These are yes or no findings as the source states them, for the method shown. For some assays here: Binding seen in cells or lysates may run through a third protein. Some entries that bind do so weakly or less than the wild type. Tags and fused reporters may be left off the sequences shown.
T1: GST-BHP (BLUE LIGHT-… H+-ATPASE PHOSPHORYLATION, Raf-like protein kinase) (Arabidopsis thaliana) (UniProt Q93Z30)
T1 sequence: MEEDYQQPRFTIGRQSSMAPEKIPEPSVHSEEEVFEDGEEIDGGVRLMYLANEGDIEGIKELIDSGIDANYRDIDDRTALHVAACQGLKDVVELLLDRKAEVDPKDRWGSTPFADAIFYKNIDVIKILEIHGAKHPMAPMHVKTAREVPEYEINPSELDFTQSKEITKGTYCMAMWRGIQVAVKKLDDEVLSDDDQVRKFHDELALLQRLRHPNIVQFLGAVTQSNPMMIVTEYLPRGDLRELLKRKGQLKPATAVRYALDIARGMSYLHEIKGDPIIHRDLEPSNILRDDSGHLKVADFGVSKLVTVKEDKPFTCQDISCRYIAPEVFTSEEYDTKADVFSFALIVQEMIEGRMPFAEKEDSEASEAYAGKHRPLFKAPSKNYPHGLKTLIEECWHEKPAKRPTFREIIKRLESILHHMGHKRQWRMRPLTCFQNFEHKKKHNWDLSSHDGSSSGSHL

By UniProt entry, the sequences of proteins in these tests, tags left out.
UniProt O48963: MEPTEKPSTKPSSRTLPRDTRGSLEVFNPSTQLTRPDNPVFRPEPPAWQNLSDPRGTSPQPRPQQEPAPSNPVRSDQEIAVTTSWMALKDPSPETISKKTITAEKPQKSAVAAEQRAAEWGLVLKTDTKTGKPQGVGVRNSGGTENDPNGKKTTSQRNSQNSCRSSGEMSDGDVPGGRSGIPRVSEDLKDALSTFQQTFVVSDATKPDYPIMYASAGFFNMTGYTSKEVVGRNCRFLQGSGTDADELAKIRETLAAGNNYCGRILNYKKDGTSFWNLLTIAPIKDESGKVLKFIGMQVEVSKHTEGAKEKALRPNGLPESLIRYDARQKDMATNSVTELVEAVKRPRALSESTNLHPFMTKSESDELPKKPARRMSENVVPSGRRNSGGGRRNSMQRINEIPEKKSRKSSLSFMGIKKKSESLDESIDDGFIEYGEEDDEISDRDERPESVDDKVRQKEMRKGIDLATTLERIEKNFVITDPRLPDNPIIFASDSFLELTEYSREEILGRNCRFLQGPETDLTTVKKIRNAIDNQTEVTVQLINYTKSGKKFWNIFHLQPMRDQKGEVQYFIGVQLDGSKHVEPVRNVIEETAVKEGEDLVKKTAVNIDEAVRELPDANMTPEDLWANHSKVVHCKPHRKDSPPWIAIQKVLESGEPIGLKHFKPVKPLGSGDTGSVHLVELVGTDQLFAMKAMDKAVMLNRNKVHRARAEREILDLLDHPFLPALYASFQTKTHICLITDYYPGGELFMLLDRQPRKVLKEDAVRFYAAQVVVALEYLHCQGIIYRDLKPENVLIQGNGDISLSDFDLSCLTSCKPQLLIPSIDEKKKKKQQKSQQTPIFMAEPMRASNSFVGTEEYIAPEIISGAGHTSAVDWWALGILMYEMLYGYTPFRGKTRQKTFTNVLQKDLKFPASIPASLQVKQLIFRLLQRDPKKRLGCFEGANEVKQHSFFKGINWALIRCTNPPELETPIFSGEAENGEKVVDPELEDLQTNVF
UniProt P93025: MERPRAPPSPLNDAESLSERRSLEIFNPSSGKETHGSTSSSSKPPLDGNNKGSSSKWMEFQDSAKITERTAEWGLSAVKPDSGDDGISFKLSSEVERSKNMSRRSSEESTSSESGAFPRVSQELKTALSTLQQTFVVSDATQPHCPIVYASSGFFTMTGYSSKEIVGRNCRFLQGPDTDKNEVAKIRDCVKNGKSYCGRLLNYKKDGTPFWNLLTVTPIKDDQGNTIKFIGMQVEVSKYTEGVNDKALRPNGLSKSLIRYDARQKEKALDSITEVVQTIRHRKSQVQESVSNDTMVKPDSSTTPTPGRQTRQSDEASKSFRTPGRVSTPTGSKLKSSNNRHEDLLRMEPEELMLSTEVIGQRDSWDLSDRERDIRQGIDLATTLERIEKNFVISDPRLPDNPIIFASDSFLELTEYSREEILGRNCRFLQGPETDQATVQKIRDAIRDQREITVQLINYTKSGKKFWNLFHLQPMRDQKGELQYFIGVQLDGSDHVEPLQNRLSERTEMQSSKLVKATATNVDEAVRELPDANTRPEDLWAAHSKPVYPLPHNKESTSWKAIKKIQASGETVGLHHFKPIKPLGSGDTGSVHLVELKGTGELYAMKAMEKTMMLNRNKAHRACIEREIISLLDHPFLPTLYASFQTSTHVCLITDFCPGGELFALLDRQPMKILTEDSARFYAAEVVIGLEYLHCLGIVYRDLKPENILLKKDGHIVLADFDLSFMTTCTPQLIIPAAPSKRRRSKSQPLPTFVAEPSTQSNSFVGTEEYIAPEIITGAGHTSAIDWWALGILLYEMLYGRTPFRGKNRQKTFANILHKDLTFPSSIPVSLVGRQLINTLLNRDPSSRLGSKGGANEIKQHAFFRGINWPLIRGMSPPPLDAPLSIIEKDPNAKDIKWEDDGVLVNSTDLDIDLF
UniProt P48484: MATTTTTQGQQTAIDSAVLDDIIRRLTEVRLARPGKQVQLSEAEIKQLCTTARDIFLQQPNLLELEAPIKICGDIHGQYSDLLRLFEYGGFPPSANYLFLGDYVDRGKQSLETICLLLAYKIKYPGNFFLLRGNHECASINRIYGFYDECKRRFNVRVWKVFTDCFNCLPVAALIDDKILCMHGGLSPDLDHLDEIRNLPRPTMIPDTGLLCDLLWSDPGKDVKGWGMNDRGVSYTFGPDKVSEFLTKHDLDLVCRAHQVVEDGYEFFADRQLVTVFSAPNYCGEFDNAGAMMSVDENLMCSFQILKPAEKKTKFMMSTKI

B1: FLAG-BLUS1 (BLUE LIGHT …1) (protein, UniProt O23304 1-487)
chain: MARNKLEFPLDAEAYEIICKIGVGVSASVYKAICIPMNSMVVAIKAIDLDQSRADFDSLRRETKTMSLLSHPNILNAYCSFTVDRCLWVVMPFMSCGSLHSIVSSSFPSGLPENCISVFLKETLNAISYLHDQGHLHRDIKAGNILVDSDGSVKLADFGVSASIYEPVTSSSGTTSSSLRLTDIAGTPYWMAPEVVHSHTGYGFKADIWSFGITALELAHGRPPLSHLPPLKSLLMKITKRFHFSDYEINTSGSSKKGNKKFSKAFREMVGLCLEQDPTKRPSAEKLLKHPFFKNCKGLDFVVKNVLHSLSNAEQMFMESQILIKSVGDDDEEEEEEDEEIVKNRRISGWNFREDDLQLSPVFPATESDSSESSPREEDQSKDKKEDDNVTITGYELGLGLSNEEAKNQEGEVVGFDKDLVLEKLKVLKKSLEHQRARVSIIIEALSGDKEEKSREEELLEMVEKLKIELETEKLKTLRADKDSVLG
B2: BLUS1 fused to a half of YFP (BiFC construct) (protein, UniProt O23304 1-487)
chain: B1 chain
B3: GST-14-3-3 protein (GF14ϕ) (protein, UniProt P46077 1-267)
chain: MAAPPASSSAREEFVYLAKLAEQAERYEEMVEFMEKVAEAVDKDELTVEERNLLSVAYKNVIGARRASWRIISSIEQKEESRGNDDHVTTIRDYRSKIESELSKICDGILKLLDTRLVPASANGDSKVFYLKMKGDYHRYLAEFKTGQERKDAAEHTLTAYKAAQDIANAELAPTHPIRLGLALNFSVFYYEILNSPDRACNLAKQAFDEAIAELDTLGEESYKDSTLIMQLLRDNLTLWTSDMQDESPEEIKEAAAPKPAEEQKEI

Columns and labels:
[1] = molecular target: BHP fused to a half of YFP (BiFC construct) (Arabidopsis thaliana) (UniProt Q93Z30); assay: split reporter; BiFC with halves of YFP (pSPYNE173, pSPYCE(M)) in Nicotiana benthamiana leaves, with the p19 silencing suppressor; confocal microscopy 4 days after infiltration
[2] = molecular target: T1, GST-BHP (BLUE LIGHT-… H+-ATPASE PHOSPHORYLATION, Raf-like protein kinase) (Arabidopsis thaliana); assay: pull-down; supernatants of E. coli expressing GST-BHP and of E. coli expressing the FLAG protein mixed, 0.5% Triton X-100 in TBS with 5 mM DTT, glutathione-Sepharose 4B, 30 min at 4 °C; immunoblot with anti-GST and anti-FLAG
[3] = molecular target: phot1, autophosphorylated after blue light, from etiolated seedlings (Arabidopsis thaliana (endogenous in etiolated seedlings)) (UniProt O48963); assay: far-Western, overlay or dot blot; protein blotting with GST-14-3-3 (GF14ϕ) as a probe on extracts of etiolated seedlings resolved by SDS-PAGE; seedlings with or without blue light 100 μmol m^-2 s^-1 for 1 min, with DMSO or kinase inhibitors

Row | Molecule | binding [1] | binding [2] | further results
1 | phot2 fused to a half of YFP (BiFC construct) (from UniProt P93025 1-915) | binds | – | –
2 | FLAG-PP1 (TYPE ONE PROTEIN PHOSPHATASE 4, TOPP4) (from UniProt P48484 1-321) | – | binds | –
3 | B1 | – | binds | –
4 | B2 | binds | – | –
5 | B3 | – | – | binding [3]: binds

From PMC5372365
